# Laboratory results: article PMC8169937
# Chains of the proteins cited; added tags and fusions are not shown. Lines headed by an entry give the natural chain unless they say otherwise; changes in a name come on top.
# UniProt Q562E2: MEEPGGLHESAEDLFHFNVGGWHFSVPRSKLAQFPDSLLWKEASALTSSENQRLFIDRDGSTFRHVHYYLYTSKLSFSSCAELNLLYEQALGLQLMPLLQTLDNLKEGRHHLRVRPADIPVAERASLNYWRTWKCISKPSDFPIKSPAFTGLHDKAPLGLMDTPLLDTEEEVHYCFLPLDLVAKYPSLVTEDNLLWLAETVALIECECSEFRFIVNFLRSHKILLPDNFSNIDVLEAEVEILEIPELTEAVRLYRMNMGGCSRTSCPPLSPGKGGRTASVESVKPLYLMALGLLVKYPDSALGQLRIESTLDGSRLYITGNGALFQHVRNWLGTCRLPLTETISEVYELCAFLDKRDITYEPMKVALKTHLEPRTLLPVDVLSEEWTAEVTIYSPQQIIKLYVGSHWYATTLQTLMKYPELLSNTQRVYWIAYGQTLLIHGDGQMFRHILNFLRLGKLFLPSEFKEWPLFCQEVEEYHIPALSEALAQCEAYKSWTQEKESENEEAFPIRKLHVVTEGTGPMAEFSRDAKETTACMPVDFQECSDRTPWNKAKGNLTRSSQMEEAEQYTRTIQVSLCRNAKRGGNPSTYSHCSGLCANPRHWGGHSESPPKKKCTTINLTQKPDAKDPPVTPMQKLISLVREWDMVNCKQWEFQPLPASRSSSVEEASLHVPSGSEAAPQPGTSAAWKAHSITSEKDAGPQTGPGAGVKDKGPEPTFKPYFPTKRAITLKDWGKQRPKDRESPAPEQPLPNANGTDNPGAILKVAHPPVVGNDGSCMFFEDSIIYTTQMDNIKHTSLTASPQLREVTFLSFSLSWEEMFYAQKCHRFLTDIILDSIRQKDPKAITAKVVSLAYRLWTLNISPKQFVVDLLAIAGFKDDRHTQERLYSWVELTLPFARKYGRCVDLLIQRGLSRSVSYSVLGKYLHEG
# UniProt P70288: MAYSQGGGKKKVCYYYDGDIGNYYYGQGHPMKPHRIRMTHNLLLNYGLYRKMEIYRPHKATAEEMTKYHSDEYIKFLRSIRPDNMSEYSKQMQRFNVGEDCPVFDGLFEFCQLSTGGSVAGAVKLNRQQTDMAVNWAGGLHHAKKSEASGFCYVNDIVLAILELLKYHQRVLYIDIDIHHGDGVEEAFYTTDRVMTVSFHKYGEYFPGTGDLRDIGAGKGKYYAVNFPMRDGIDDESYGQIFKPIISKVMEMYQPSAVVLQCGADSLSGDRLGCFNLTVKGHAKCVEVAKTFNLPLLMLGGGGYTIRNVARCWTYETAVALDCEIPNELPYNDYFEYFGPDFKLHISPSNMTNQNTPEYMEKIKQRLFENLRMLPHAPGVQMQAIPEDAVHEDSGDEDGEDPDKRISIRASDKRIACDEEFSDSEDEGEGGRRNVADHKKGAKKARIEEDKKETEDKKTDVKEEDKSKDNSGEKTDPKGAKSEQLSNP
# UniProt O09106: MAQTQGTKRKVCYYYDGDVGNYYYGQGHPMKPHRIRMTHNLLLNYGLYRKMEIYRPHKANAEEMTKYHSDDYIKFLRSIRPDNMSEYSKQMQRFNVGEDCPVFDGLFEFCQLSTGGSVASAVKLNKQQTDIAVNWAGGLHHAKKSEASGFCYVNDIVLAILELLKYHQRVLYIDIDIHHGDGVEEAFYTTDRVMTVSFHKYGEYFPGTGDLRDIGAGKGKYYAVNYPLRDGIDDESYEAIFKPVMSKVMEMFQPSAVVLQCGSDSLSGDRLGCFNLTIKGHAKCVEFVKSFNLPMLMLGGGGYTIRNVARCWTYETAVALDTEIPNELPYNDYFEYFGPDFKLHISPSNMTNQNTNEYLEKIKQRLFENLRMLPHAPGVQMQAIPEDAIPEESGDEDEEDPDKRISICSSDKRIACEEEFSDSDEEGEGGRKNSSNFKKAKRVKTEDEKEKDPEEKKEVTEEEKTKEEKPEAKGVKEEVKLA
# T1: ZFP541 (mouse (endogenous in testis)) (UniProt Q0GGX2)
# T1 sequence: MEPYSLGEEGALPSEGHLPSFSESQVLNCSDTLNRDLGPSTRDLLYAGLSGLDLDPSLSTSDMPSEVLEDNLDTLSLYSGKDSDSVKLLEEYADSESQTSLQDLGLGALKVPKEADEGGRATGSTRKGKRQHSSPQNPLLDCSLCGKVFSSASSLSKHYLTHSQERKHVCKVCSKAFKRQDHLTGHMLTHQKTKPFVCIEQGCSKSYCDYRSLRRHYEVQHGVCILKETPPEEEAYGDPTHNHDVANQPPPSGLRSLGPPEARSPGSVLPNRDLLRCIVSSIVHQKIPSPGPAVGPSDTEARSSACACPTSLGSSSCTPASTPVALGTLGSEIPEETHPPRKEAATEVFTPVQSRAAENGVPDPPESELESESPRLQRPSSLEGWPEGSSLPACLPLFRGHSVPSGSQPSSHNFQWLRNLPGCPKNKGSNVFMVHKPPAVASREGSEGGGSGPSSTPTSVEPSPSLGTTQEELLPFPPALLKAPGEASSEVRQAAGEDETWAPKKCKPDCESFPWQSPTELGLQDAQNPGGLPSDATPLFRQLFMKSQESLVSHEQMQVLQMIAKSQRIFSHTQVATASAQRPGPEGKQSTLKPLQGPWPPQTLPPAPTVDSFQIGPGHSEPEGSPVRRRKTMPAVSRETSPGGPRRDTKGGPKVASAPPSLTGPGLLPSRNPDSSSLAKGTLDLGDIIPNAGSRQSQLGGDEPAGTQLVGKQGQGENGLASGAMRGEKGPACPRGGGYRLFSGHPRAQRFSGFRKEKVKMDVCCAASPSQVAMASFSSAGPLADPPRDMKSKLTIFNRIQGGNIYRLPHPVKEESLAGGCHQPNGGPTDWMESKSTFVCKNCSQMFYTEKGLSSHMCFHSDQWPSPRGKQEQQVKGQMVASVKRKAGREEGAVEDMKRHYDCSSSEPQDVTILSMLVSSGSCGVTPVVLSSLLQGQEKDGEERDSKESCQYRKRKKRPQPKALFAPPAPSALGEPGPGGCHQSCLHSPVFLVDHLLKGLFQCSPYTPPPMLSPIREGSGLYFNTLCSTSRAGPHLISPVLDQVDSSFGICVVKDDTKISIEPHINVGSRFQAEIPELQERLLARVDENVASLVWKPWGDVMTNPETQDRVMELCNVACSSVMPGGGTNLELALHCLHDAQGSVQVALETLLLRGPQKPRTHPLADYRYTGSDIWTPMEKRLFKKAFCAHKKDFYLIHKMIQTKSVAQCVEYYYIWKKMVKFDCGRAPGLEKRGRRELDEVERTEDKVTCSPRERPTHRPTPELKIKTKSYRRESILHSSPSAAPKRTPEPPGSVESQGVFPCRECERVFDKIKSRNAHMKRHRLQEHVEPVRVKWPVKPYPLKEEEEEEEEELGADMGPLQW
# Tests used:
# [1] = target: T1, ZFP541 (mouse (endogenous in testis)); test: affinity purification with mass spectrometry; ZFP541-IP from the MNase-released nucleosome fraction of mouse testis extracts; LC-MS/MS; proteins found in the control IgG-IP excluded
# [2] = target: T1, ZFP541 (mouse (endogenous in testis)); test: affinity purification with mass spectrometry; endogenous ZFP541 immunoprecipitated with rabbit anti-ZFP541 crosslinked to protein A-Dynabeads from the chromatin-bound fraction of WT mouse testis extracts; LC-MS/MS; proteins found in the control IgG-IP excluded
# [3] = target: T1, ZFP541 (mouse (endogenous in testis)); test: affinity purification with mass spectrometry; ZFP541-IP from the chromatin-unbound fraction of mouse testis extracts; LC-MS/MS; proteins found in the control IgG-IP excluded
# [4] = target: KCTD19 (mouse (endogenous in testis)) (UniProt Q562E2); test: affinity purification with mass spectrometry; endogenous KCTD19 immunoprecipitated with anti-KCTD19-N from mouse testis extracts; in-gel digestion, LC-MS/MS; proteins found in the control IgG-IP excluded
Molecule,binding [1],binding [2],binding [3],binding [4]
KCTD19 (from UniProt Q562E2-2),binds,binds,binds,–
HDAC2 (from UniProt P70288 1-488) (enzyme),binds,binds,binds,binds
HDAC1 (from UniProt O09106 1-482) (enzyme),–,–,–,binds
"terminal deoxynucleotidyltransferase-interacting factor 1 (TDIF1) (protein, UniProt Q99LB0 1-328) MGATGDTEQPRGPGGAERGGLELGDAGAAGQPVLTNPWNIMIKHRQVQRRGRRSQMTTSFTDPAISMDLLRAVLQPSINEEIQGVFNKYMKFFQKAALNVRDNVGEEVDAEQLIQEACRSCLEQAKLLFSDGEKVIPRLAHELPGIKRGRQAEEESHRGSPIPKKRKGRPPGHVLSNDRAAAGMVWKQKSCEPIRREGPKWDPARLNESTTFVLGSRANKALGMGGTRGRIYIKHPHLFKYAADPQDKHWLAEQHHMRATGGKMAYLLIEEDIRDLAASDDYRGCLDLKLEELKSFVLPSWMVEKMRKYMETLRTENEHRAAEAPPQT",binds,binds,binds,binds
"ZFP541 (protein, UniProt Q0GGX2 1-1363) MEPYSLGEEGALPSEGHLPSFSESQVLNCSDTLNRDLGPSTRDLLYAGLSGLDLDPSLSTSDMPSEVLEDNLDTLSLYSGKDSDSVKLLEEYADSESQTSLQDLGLGALKVPKEADEGGRATGSTRKGKRQHSSPQNPLLDCSLCGKVFSSASSLSKHYLTHSQERKHVCKVCSKAFKRQDHLTGHMLTHQKTKPFVCIEQGCSKSYCDYRSLRRHYEVQHGVCILKETPPEEEAYGDPTHNHDVANQPPPSGLRSLGPPEARSPGSVLPNRDLLRCIVSSIVHQKIPSPGPAVGPSDTEARSSACACPTSLGSSSCTPASTPVALGTLGSEIPEETHPPRKEAATEVFTPVQSRAAENGVPDPPESELESESPRLQRPSSLEGWPEGSSLPACLPLFRGHSVPSGSQPSSHNFQWLRNLPGCPKNKGSNVFMVHKPPAVASREGSEGGGSGPSSTPTSVEPSPSLGTTQEELLPFPPALLKAPGEASSEVRQAAGEDETWAPKKCKPDCESFPWQSPTELGLQDAQNPGGLPSDATPLFRQLFMKSQESLVSHEQMQVLQMIAKSQRIFSHTQVATASAQRPGPEGKQSTLKPLQGPWPPQTLPPAPTVDSFQIGPGHSEPEGSPVRRRKTMPAVSRETSPGGPRRDTKGGPKVASAPPSLTGPGLLPSRNPDSSSLAKGTLDLGDIIPNAGSRQSQLGGDEPAGTQLVGKQGQGENGLASGAMRGEKGPACPRGGGYRLFSGHPRAQRFSGFRKEKVKMDVCCAASPSQVAMASFSSAGPLADPPRDMKSKLTIFNRIQGGNIYRLPHPVKEESLAGGCHQPNGGPTDWMESKSTFVCKNCSQMFYTEKGLSSHMCFHSDQWPSPRGKQEQQVKGQMVASVKRKAGREEGAVEDMKRHYDCSSSEPQDVTILSMLVSSGSCGVTPVVLSSLLQGQEKDGEERDSKESCQYRKRKKRPQPKALFAPPAPSALGEPGPGGCHQSCLHSPVFLVDHLLKGLFQCSPYTPPPMLSPIREGSGLYFNTLCSTSRAGPHLISPVLDQVDSSFGICVVKDDTKISIEPHINVGSRFQAEIPELQERLLARVDENVASLVWKPWGDVMTNPETQDRVMELCNVACSSVMPGGGTNLELALHCLHDAQGSVQVALETLLLRGPQKPRTHPLADYRYTGSDIWTPMEKRLFKKAFCAHKKDFYLIHKMIQTKSVAQCVEYYYIWKKMVKFDCGRAPGLEKRGRRELDEVERTEDKVTCSPRERPTHRPTPELKIKTKSYRRESILHSSPSAAPKRTPEPPGSVESQGVFPCRECERVFDKIKSRNAHMKRHRLQEHVEPVRVKWPVKPYPLKEEEEEEEEELGADMGPLQW",–,–,–,binds
"MIDEAS (protein, UniProt E9Q2I4 1-1089) MNLQAQSKAQSKRKRCPFGDQEPAAKEQPPPLQSPPQSLRAKEEQYGAHEGPTGVASTTQPVELSPPNNLALLNSVVYGSERTTAAMLSQQAQVSSVKWPSSVMAPGRGLERGGGGGISDSGWQQQPGQPPPHSTWNHLPLYGGPKGSPHPGVGVPPYYNHPEALKGNKPGGPQLDHYGNAVQPMVPQKVQLEVGRPQAPLNSFHAAKKPPNQTLPLQPFQLAFGHQVNRQVFRQGPQPSNPTASFPPQKQQQQQQPAALPQMQLFENYYPMHQLPSQQHQDFGLAPGGPLGQTHLAHRSMAPYPFSHNPDMNPELRKALLQDPASQPVLPQPQMAFPRRSRRLSKEGILPSNSLDGAGTQPGQEPASNLFLHHWSLPQPPPGTLGQPHSEALGFPLELRESQMLADGDRLAPNGREREPPAMGNEEVMRAGGLGDCGQMIRSGVIQSTKRRRRVSQEANLLTLAQKAVELASMQDANGSEEKRKSVLATTSRCGVEFSEPALAAKRAREESGMVPLIIPVSVPVRTVGPTEVAQVGGADEDGTGLEQYPTEHKPSVIVTRRRSTRVPGTDAAAQAEDLNVKLEGEPSMRKPKQRPRPEPLIIPTKAGTFIAPPVYSNITPYQSHLRSPVRLADHPSERSFEPPPYTPPPILSPVREGSGLYFNAIISTSNIPAPPPITPKSAHRTLLRSNSSEVTPPVLSVMGEATPVSIEPRINVGTRFQAEIPMMRDRALAAFDPHKADLVWQPWEHLESSWEKQRQVDDLLTAACSSIFPGAGTNQELALHYLHESRGDILEALNKLLLRKPLRPHNHPLATYHYTGSDQWKTAERKLFNKGIAIYKKDFFLVQKLIQTKTVAQCVEFYYTYKKQVKIGRNGTLTFGDLDIGDEKSGQEEVEVDVKTSQKFPRVPPPRRESPSEERLEPKREVTEPRKEGEEEVPDTQEKGEQEEGRERCRRAAAVKATQTLQANEAANDVLILRSHEPNAPGSAGIQTSEKPREGPGKSRRALPFTEKKKKAEAFNKTQNQENTFPCKKCGRVFYKVKSRSAHMKSHAEQEKKAAALRLKEKEAAAAAAHQQALREESGEGEKG",–,–,–,binds
"Transcription regulatory factor 1 (TRERF1) (protein, UniProt Q8BXJ2 1-1205) MGDQQLYKTNHVGHGGENLFYQQPPLGVHSGLGHSYGNTISGAGMDAPQASPISPHFPQDTRDGLGLPIGSKNLGQMDTSRQGGWGSHAGPGNHVQLRSNLANSNMMWGTPTQVEPADGYQYTYSQASEIRTQKLTSGVLHKLDSFTQVFANQNLRIQVNNMAQVLHTQSAVMDGASDSALRQLLSQKPVEPSASAIASRYQQVPQQPHPGFTGGLPKPALPVGQHAPQGHLYYDYQQPLAQMSMQGGQPLQAPQVLSGHMQQLQQHQYYPQPPPQQQQAGLQRISVQEMQQQQQPQQIRPSPPQQQQQLQLQQRQSSLQIPQYYQPQPMMQHLQEQQQPSMHLQPPSYHRDPHQYTPEQAHAVQLIQLGSMPQYYYQEPQQAYSHPLYPQSHLSQHQQREDGQLKTYSSDRQTPAMLSSHGDMGTSDTGVADPASSEMTRVTSTLPHQPLLSPSGIHLNNMGSQHQQPPSPSAMWPQMHLPDGRAQSGSPESSSGQTKGVFGEQFDAKNKLTCSICLKEFKSLPALNGHMRSHGGMRASPSLKQEEGEKAPPPQPQPQPQPQQPLPPPPPPPPPPQLPPEAERLTPMVMPVSVPVKLIPPKPSSQGFTNSVAATPAARDKPASSMSDDEMPVLEIPRKHPPIAAKVEEPLKNLPEKKKFRHRPEPLFIPPPPSSYTPNPTSYSGATLYQSQLRSPRILGDHLLLDPAHELPPYTPPPMLSPVRQGSGLFSNVLISGHGPGVHPQLPLTPLTPTPRVLLCRSSSIDGSNVTVTPGPGEQTVDVEPRINIGLRFQAEIPELQDVSALAQDTHRATLVWKPWPELENQALQQQVENLLNLCCSSALPGGGTNSEFALHSLFEAKGDVMATLEMLLLRKPVRLKCHPLANYHYAGSDKWTSLERKLFNKALATYSKDFIFVQKMVKSKTVAQCVEYYYTWKKIMRLGRKHRTRLAEIIDDCMTSEEEEEAEEEEEDPEEDRKSIKEEESEVAKSPEPPPAPALAPTEGPPMQAVGQQPSGNFICEMPNCGAVFSSRQALNGHARIHGGTNQVAKTRGAIPSGKQKPGGTQSGYCSVKSSPSHSTTSGETDPTTIFPCKECGKVFFKIKSRNAHMKTHRQQEEQQRQKAQKAAFAAEMAATIERTTGPVGAPELLPLDQLSLMKPVKDVDILDDDVVQQLGVMDEAEVVGTDLLLDDQDSVLLQGDTEL",–,–,–,binds

# Results are given in words; binding and its absence hold for the method and conditions named. Binding seen in cells or lysates may run through a third protein. A yes stands for co-enrichment or nearness to the bait. Other partners may have been found.
